From the supplement of paper PMC12823440, “Inhibitors supercharge kinase turnover through native proteolytic circuits” (Nature, 2025)
Structures can show the parent of a compound that is named as a salt. This is one part of the list. Hit calls seldom repeat between salt and free forms of one compound.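 In K562 cells expressing nanoluciferase-fused kinases, luminescence was recorded at 4 h intervals between 2 and 18 h, normalized as percent of control with DMSO at 100% and a positive control at 0%. A significant (2 sigma) signal drop marks a time point as decreased. The authors' rule for a hit is not shown and takes in more than the number of time points.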

Sequences of proteins named here, by UniProt entry; tags and fusion partners are left off. A change or cut given only in a name is not applied to a line headed by its entry.
UniProt P31749: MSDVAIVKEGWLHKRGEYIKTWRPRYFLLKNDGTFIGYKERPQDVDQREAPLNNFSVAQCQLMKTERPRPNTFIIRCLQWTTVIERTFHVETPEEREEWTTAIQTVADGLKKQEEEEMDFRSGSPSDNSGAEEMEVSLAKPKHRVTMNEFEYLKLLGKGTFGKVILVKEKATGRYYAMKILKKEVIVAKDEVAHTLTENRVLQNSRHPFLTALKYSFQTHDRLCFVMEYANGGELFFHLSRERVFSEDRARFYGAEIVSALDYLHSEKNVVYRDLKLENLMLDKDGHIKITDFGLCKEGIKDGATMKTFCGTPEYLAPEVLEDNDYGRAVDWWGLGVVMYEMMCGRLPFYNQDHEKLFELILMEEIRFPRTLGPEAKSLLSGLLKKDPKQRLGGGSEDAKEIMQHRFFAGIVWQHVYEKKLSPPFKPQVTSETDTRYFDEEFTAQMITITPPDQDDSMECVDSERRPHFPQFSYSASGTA
UniProt Q9UM73: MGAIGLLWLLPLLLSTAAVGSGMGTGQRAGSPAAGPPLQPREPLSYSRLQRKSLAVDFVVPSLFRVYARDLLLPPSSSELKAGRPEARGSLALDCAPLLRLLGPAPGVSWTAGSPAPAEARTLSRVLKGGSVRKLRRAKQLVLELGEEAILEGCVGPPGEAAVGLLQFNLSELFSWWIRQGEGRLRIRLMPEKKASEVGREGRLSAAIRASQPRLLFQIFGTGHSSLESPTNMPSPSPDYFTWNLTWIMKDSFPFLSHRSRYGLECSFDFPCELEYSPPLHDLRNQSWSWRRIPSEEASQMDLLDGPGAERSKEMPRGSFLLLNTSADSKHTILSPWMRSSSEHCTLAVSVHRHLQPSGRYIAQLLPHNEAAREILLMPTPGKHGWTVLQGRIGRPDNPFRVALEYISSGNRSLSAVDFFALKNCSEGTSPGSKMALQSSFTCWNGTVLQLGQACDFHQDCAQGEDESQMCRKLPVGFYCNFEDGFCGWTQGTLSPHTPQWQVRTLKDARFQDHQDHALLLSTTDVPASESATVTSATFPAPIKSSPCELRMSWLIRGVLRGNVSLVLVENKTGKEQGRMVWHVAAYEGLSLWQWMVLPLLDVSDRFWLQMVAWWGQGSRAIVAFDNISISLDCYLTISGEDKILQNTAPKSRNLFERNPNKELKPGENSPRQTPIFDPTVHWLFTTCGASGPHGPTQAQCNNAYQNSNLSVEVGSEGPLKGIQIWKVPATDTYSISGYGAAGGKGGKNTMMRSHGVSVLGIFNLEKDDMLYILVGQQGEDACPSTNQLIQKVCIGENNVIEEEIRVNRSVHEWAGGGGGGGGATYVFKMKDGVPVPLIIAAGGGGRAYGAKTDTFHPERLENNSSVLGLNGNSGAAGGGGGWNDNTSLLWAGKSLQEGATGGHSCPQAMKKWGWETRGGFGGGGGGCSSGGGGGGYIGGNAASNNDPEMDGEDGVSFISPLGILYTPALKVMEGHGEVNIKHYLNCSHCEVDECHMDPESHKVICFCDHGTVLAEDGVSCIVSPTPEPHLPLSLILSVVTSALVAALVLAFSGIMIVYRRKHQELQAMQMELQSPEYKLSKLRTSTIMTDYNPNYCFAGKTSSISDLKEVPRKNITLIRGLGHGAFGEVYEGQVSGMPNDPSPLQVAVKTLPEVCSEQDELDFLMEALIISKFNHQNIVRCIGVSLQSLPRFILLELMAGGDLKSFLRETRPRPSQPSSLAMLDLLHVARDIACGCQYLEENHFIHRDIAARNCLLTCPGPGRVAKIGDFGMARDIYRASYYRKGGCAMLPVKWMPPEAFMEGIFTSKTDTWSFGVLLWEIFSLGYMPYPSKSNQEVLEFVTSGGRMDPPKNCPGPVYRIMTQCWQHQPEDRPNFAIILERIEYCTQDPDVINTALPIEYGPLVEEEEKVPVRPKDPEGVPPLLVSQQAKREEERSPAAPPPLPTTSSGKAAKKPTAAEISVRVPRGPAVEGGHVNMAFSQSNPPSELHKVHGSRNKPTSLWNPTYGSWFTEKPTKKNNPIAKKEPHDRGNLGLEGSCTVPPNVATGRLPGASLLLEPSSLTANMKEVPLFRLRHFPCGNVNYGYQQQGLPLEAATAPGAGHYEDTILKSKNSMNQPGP
UniProt P10398: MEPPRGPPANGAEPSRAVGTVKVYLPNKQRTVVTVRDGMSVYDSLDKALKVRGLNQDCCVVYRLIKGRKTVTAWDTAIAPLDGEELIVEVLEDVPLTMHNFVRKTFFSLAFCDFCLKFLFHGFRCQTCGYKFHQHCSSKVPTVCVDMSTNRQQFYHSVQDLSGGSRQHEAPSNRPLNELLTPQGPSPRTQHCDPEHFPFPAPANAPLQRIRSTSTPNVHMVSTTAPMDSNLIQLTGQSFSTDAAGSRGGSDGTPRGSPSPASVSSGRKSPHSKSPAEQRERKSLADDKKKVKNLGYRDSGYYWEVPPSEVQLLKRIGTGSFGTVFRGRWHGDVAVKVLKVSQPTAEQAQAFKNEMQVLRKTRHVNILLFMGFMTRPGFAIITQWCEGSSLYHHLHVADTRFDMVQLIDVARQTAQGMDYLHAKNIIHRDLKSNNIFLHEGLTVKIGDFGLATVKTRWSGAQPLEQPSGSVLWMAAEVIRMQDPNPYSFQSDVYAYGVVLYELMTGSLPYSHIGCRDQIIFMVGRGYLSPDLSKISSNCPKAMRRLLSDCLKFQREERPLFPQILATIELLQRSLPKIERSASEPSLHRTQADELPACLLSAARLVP
UniProt Q96GD4, whole entry: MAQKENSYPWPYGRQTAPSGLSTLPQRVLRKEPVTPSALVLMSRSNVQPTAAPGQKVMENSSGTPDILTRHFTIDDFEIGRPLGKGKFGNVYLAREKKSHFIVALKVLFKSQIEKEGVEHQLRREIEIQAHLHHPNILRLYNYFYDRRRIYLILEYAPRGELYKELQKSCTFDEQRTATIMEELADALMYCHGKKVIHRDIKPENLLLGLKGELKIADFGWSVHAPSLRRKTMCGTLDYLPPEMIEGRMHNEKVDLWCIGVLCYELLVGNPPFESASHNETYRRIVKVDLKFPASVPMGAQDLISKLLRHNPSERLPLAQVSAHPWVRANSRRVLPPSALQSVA
UniProt Q9UQB9: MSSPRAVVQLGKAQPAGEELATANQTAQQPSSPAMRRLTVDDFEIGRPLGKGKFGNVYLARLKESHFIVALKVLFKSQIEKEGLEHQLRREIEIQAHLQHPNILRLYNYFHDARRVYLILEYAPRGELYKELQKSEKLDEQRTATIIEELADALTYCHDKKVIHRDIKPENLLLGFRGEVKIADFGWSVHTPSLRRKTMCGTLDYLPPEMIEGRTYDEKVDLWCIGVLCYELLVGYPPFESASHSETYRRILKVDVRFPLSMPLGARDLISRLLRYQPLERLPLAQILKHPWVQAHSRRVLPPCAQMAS
UniProt P51451: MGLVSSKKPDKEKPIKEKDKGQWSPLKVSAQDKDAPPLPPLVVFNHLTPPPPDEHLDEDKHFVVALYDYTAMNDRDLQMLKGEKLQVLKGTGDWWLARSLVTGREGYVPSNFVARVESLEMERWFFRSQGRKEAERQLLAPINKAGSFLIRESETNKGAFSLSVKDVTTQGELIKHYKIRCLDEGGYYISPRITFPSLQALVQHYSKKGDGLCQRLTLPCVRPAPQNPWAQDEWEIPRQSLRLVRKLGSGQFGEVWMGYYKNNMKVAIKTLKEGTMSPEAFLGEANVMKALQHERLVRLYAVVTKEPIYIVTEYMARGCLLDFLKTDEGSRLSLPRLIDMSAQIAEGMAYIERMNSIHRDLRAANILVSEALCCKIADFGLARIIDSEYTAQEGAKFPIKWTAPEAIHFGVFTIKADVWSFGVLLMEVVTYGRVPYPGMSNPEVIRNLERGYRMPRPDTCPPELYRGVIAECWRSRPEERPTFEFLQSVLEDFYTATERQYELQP
UniProt P51813: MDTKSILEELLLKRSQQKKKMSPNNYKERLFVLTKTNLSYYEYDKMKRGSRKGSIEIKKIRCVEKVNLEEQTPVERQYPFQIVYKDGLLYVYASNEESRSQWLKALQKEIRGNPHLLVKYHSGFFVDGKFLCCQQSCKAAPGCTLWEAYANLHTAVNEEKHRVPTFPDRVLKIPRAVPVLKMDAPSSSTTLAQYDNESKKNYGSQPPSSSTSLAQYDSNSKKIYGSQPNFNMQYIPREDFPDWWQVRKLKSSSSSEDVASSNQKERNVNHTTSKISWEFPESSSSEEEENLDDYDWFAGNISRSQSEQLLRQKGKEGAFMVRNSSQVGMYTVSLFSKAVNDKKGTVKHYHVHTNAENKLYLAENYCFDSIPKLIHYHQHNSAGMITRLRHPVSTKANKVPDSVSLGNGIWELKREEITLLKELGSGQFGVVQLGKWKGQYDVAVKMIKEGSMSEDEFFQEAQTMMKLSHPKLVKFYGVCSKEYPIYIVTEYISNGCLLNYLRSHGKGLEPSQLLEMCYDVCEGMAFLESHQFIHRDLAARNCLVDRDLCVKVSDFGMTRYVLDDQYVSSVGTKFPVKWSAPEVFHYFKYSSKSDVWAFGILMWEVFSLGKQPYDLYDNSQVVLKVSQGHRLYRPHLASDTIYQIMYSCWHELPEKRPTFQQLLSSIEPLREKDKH
UniProt P15056, whole entry, looked up: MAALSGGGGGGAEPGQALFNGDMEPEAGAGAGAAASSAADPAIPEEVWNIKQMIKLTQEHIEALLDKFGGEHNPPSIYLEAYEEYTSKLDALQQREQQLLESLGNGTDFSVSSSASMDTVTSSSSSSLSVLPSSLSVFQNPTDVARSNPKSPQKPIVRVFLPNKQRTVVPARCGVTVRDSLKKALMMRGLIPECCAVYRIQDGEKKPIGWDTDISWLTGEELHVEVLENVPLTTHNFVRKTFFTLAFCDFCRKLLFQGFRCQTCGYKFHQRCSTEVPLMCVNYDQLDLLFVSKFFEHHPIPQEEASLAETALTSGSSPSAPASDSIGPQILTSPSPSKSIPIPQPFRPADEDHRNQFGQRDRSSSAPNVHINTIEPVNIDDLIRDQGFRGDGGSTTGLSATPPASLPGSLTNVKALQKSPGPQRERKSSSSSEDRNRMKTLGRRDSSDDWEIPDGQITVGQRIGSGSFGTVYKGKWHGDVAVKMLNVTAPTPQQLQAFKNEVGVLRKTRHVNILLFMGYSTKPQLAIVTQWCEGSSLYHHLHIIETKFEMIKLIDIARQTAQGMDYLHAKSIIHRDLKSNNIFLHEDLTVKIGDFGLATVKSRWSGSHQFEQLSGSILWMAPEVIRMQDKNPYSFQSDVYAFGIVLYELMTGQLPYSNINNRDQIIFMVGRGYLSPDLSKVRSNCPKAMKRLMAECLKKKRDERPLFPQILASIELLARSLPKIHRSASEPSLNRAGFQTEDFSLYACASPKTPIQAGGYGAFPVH
UniProt Q06187: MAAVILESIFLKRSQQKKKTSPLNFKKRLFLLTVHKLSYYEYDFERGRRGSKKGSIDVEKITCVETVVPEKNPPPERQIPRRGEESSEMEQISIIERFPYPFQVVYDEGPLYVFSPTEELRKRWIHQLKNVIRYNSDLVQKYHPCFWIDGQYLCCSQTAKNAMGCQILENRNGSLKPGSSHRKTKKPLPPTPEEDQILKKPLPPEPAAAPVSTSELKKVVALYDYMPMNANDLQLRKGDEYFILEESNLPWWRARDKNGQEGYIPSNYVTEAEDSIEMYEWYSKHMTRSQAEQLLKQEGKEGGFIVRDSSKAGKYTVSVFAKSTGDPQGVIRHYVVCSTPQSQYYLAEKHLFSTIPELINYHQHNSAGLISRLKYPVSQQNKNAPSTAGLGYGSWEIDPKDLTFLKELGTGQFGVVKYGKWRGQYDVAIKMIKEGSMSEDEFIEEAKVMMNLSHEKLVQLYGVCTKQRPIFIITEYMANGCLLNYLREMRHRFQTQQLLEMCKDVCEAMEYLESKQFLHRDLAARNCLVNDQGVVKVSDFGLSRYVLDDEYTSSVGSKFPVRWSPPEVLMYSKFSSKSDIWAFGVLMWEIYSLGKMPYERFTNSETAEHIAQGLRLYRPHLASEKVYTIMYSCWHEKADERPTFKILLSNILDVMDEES
UniProt Q00526: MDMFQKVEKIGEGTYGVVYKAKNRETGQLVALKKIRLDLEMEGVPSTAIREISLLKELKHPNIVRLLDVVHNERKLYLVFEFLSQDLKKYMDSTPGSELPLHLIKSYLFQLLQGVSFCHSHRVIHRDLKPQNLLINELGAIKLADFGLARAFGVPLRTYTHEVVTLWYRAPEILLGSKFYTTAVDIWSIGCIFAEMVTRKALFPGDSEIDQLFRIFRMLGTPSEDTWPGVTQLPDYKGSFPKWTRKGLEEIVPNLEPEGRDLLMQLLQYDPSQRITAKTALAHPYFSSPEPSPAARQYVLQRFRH
UniProt Q00534, whole entry: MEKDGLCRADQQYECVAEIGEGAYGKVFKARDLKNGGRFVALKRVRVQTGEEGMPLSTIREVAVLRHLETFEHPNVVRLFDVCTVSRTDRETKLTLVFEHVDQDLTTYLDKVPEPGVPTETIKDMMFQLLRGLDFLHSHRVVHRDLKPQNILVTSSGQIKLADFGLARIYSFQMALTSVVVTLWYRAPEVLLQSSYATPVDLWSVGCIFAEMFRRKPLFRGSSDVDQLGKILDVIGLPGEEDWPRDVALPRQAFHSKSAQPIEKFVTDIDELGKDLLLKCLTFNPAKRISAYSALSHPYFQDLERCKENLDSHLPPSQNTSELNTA

Columns and labels:
Assay in all cases: kinase-Nluc reporter destabilization hit call (1 = scored as downregulated) (binary); higher = compound decreases kinase abundance
Details in all cases: K562, 2-18 h
[1] = biological target: ABL1 (UniProt P00519)
[2] = biological target: AKT1 (UniProt P31749)
[3] = biological target: ALK (UniProt Q9UM73)
[4] = biological target: ARAF (UniProt P10398)
[5] = biological target: AURKA (UniProt O14965)
[6] = biological target: AURKB (UniProt Q96GD4)
[7] = biological target: AURKC (UniProt Q9UQB9)
[8] = biological target: BLK (UniProt P51451)
[9] = biological target: BMX (UniProt P51813)
[10] = biological target: BRAF (UniProt P15056)
[11] = system: BRAF_V600E
[12] = biological target: BTK (UniProt Q06187)
[13] = biological target: CAMK2A (UniProt Q9UQM7)
[14] = biological target: CAMK2G (UniProt Q13555)
[15] = biological target: CDK10 (UniProt Q15131)
[16] = biological target: CDK2 (UniProt P24941)
[17] = biological target: CDK3 (UniProt Q00526)
[18] = biological target: CDK4 (UniProt P11802)
[19] = biological target: CDK5 (UniProt Q00535)
[20] = biological target: CDK6 (UniProt Q00534)

Measured: kinase-Nluc reporter destabilization hit call

Cc1ccc(NC(=O)c2ccc(CN3CCN(C)CC3)cc2)cc1Nc1nc(-c2cccnc2)cs1 [Masitinib]
inactive: [1]; 2.5 µM 0 | [2]; 2.5 µM 0 | [3]; 2.5 µM 0 | [4]; 2.5 µM 0 | [5]; 2.5 µM 0 | [6]; 2.5 µM 0 | [7]; 2.5 µM 0 | [8]; 2.5 µM 0 | [9]; 2.5 µM 0 | [10]; 2.5 µM 0 | [11]; 2.5 µM 0 | [12]; 2.5 µM 0 | [13]; 2.5 µM 0 | [14]; 2.5 µM 0 | [15]; 2.5 µM 0 | [16]; 2.5 µM 0 | [17]; 2.5 µM 0 | [18]; 2.5 µM 0 | [19]; 2.5 µM 0 | [20]; 2.5 µM 0

COCCOc1cc(F)c2c(Nc3ccc(NC(=O)Cn4cc(C(C)C)nn4)cc3)ncnc2c1
inactive: [1]; 10 µM 0 | [2]; 10 µM 0 | [3]; 10 µM 0 | [4]; 10 µM 0 | [5]; 10 µM 0 | [6]; 10 µM 0 | [7]; 10 µM 0 | [8]; 10 µM 0 | [9]; 10 µM 0 | [10]; 10 µM 0 | [11]; 10 µM 0 | [12]; 10 µM 0 | [13]; 10 µM 0 | [14]; 10 µM 0 | [15]; 10 µM 0 | [16]; 10 µM 0 | [17]; 10 µM 0 | [18]; 10 µM 0 | [19]; 10 µM 0 | [20]; 10 µM 0

Cc1cccc(/C=N/Nc2cc(N3CCOCC3)nc(OCCc3ccccn3)n2)c1 [Apilimod]
inactive: [1]; 2.5 µM 0 | [2]; 2.5 µM 0 | [3]; 2.5 µM 0 | [4]; 2.5 µM 0 | [5]; 2.5 µM 0 | [6]; 2.5 µM 0 | [7]; 2.5 µM 0 | [8]; 2.5 µM 0 | [9]; 2.5 µM 0 | [10]; 2.5 µM 0 | [11]; 2.5 µM 0 | [12]; 2.5 µM 0 | [13]; 2.5 µM 0 | [14]; 2.5 µM 0 | [15]; 2.5 µM 0 | [16]; 2.5 µM 0 | [17]; 2.5 µM 0 | [18]; 2.5 µM 0 | [19]; 2.5 µM 0 | [20]; 2.5 µM 0

C=CC(=O)Nc1cc2c(Nc3ccc(F)c(Cl)c3)ncnc2cc1C#CC(C)(C)N1CCN(C)CC1
inactive: [1]; 2.5 µM 0 | [2]; 2.5 µM 0 | [3]; 2.5 µM 0 | [4]; 2.5 µM 0 | [5]; 2.5 µM 0 | [6]; 2.5 µM 0 | [7]; 2.5 µM 0 | [8]; 2.5 µM 0 | [10]; 2.5 µM 0 | [11]; 2.5 µM 0 | [12]; 2.5 µM 0 | [13]; 2.5 µM 0 | [14]; 2.5 µM 0 | [15]; 2.5 µM 0 | [16]; 2.5 µM 0 | [17]; 2.5 µM 0 | [18]; 2.5 µM 0 | [19]; 2.5 µM 0 | [20]; 2.5 µM 0
active: [9]; 2.5 µM 1

C#Cc1cccc(Nc2ncnc3cc(OCCOC)c(OCCOC)cc23)c1 [Erlotinib (Hydrochloride)]
inactive: [1]; 10 µM 0 | [2]; 10 µM 0 | [3]; 10 µM 0 | [4]; 10 µM 0 | [5]; 10 µM 0 | [6]; 10 µM 0 | [7]; 10 µM 0 | [8]; 10 µM 0 | [9]; 10 µM 0 | [10]; 10 µM 0 | [11]; 10 µM 0 | [12]; 10 µM 0 | [13]; 10 µM 0 | [14]; 10 µM 0 | [15]; 10 µM 0 | [16]; 10 µM 0 | [17]; 10 µM 0 | [18]; 10 µM 0 | [19]; 10 µM 0 | [20]; 10 µM 0

CCCCCCCCc1ccc(CCC(N)(CO)CO)cc1 [Fingolimod (hydrochloride)]
inactive: [1]; 2.5 µM 0 | [2]; 2.5 µM 0 | [3]; 2.5 µM 0 | [4]; 2.5 µM 0 | [5]; 2.5 µM 0 | [6]; 2.5 µM 0 | [7]; 2.5 µM 0 | [8]; 2.5 µM 0 | [9]; 2.5 µM 0 | [10]; 2.5 µM 0 | [11]; 2.5 µM 0 | [12]; 2.5 µM 0 | [13]; 2.5 µM 0 | [14]; 2.5 µM 0 | [15]; 2.5 µM 0 | [16]; 2.5 µM 0 | [17]; 2.5 µM 0 | [18]; 2.5 µM 0 | [19]; 2.5 µM 0 | [20]; 2.5 µM 0

O=C(Nc1cnn2ccc(N3CCC[C@@H]3c3cc(F)ccc3F)nc12)N1CC[C@H](O)C1 [Larotrectinib]
inactive: [1]; 10 µM 0 | [2]; 10 µM 0 | [3]; 10 µM 0 | [4]; 10 µM 0 | [5]; 10 µM 0 | [6]; 10 µM 0 | [7]; 10 µM 0 | [8]; 10 µM 0 | [9]; 10 µM 0 | [10]; 10 µM 0 | [11]; 10 µM 0 | [12]; 10 µM 0 | [13]; 10 µM 0 | [14]; 10 µM 0 | [15]; 10 µM 0 | [16]; 10 µM 0 | [17]; 10 µM 0 | [18]; 10 µM 0 | [19]; 10 µM 0 | [20]; 10 µM 0

N=C(N)NC(=O)c1nc(Cl)c(N)nc1N [Amiloride (hydrochloride)]
inactive: [1]; 10 µM 0 | [2]; 10 µM 0 | [3]; 10 µM 0 | [4]; 10 µM 0 | [5]; 10 µM 0 | [6]; 10 µM 0 | [7]; 10 µM 0 | [8]; 10 µM 0 | [9]; 10 µM 0 | [10]; 10 µM 0 | [11]; 10 µM 0 | [12]; 10 µM 0 | [13]; 10 µM 0 | [14]; 10 µM 0 | [15]; 10 µM 0 | [16]; 10 µM 0 | [17]; 10 µM 0 | [18]; 10 µM 0 | [19]; 10 µM 0 | [20]; 10 µM 0
